Measurements reported in PubChem BioAssay AID504774 (Drosophila RNAi Screening Center, 2011).
The screen tested about 23,000 reagents; below is an unselected part of those with a known target gene and a result. 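Values are quantile-normalised luminescence on an arbitrary scale; higher means more cells surviving MMS.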 Names joined by + are all predicted targets of the reagent.

- Purpose: 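Fly genes whose loss alters survival after alkylation damage to DNA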 (primary screen)
- System: Drosophila Kc167 cells
- Knock-down reagent: long dsRNA against Drosophila genes, about 0.25 µg dsRNA per well
- Duration: about 6 days: 3 days knock-down, then 3 days with or without MMS
- Conditions: methyl methanesulphonate 0.004% (w/v) for 3 days after knock-down
- Detection: 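ATP-dependent luminescence as a measure of live cells in MMS-exposed wells, quantile normalised within each plate, with replicate values also given as a mean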
- Scale: mean viability with MMS and viability with MMS: higher = more surviving cells after MMS

gene | amplicon | mean viability with MMS | viability with MMS, replicate 1 | viability with MMS, replicate 2
CG14411 (GeneID 32408) | DRSC19597 | 3.78e6 | 4.25e6 | 4.16e6
CG11566 (retired record) + stg1 | DRSC20473 | 2.78e6 | 3.63e6 | 3.63e6
CG11566 (retired record) + stg1 | DRSC20481 | 3.37e6 | 3.85e6 | 3.78e6
CG11566 (retired record) + stg1 | DRSC20482 | 3.52e6 | 3.95e6 | 4.05e6
CG11566 (retired record) + stg1 | DRSC20483 | 3.52e6 | 3.96e6 | 4.03e6
Tango10 (GeneID 32125) | DRSC19807 | 3.27e6 | 3.13e6 | 4.12e6
Naa60 (GeneID 39142) | DRSC10301 | 3.74e6 | 4.22e6 | 4.17e6
CG6179 (GeneID 32819) | DRSC19973 | 3.51e6 | 3.96e6 | 4.01e6
CG33337 (GeneID 2768678) | DRSC13632 | 3.63e6 | 4.05e6 | 4.16e6
Yp3 (GeneID 32339) | DRSC20302 | 3.43e6 | 3.90e6 | 3.86e6
CG14856 (GeneID 41790) | DRSC14980 | 3.73e6 | 4.13e6 | 4.33e6

3 of these entries, reformatted.
{"gene":"CG11566 (retired record) + stg1","amplicon":"DRSC20481","mean viability with MMS":3.37e6,"viability with MMS, replicate 1":3.85e6,"viability with MMS, replicate 2":3.78e6}
{"gene":"CG11566 (retired record) + stg1","amplicon":"DRSC20482","mean viability with MMS":3.52e6,"viability with MMS, replicate 1":3.95e6,"viability with MMS, replicate 2":4.05e6}
{"gene":"CG11566 (retired record) + stg1","amplicon":"DRSC20483","mean viability with MMS":3.52e6,"viability with MMS, replicate 1":3.96e6,"viability with MMS, replicate 2":4.03e6}

The results go on.
gene | amplicon | mean viability with MMS | viability with MMS, replicate 1 | viability with MMS, replicate 2
CG3328 (GeneID 37871) | DRSC04357 | 3.41e6 | 3.80e6 | 3.69e6
CG2816 (GeneID 33595) | DRSC00539 | 3.57e6 | 3.98e6 | 4.11e6
UGP (GeneID 39065) | DRSC10411 | 3.69e6 | 4.19e6 | 4.18e6
Tom70 (GeneID 34618) | DRSC02990 | 3.52e6 | 3.95e6 | 3.91e6
GlcAT-I (GeneID 251900) | DRSC17307 | 3.51e6 | 4.01e6 | 3.95e6
CG34133 (GeneID 318566) | DRSC16319 | 3.49e6 | 4.00e6 | 3.94e6
CG34133 (GeneID 318566) | DRSC22239 | 3.49e6 | 3.86e6 | 4.06e6
Lcp65Aa (GeneID 38709) | DRSC11209 | 3.69e6 | 4.11e6 | 4.26e6
TwdlZ (GeneID 318092) | DRSC19154 | 3.58e6 | 4.04e6 | 4.04e6
bru3 (GeneID 39527) | DRSC09280 | 3.46e6 | 3.79e6 | 4.08e6
bru3 (GeneID 39527) | DRSC09687 | 3.47e6 | 3.76e6 | 4.11e6
bru3 (GeneID 39527) | DRSC09887 | 3.50e6 | 3.91e6 | 4.02e6
bru3 (GeneID 39527) | DRSC22732 | 3.47e6 | 3.98e6 | 3.95e6
CG9123 (GeneID 32462) | DRSC20156 | 3.66e6 | 4.22e6 | 4.04e6
Spn31A (GeneID 34339) | DRSC02780 | 3.48e6 | 3.87e6 | 4.03e6
Rsph4a (GeneID 37831) | DRSC04338 | 3.46e6 | 4.36e6 | 3.92e6
mthl4 (GeneID 36960) | DRSC06998 | 3.75e6 | 4.30e6 | 4.14e6
